Patent US11649222B2, “Compounds” (UNIVERSITETET I OSLO, priority 2016, dated 2023)

Test: Therapeutic index and antibacterial score ASx
Details: for ASx: antibacterial score, equation (3); for TI = IC50h/MICx: therapeutic index ratio

SMILES	ASx	TI = IC50h/MICx
OC[C@H]1OC(O)[C@H](n2cc(CN(Cc3ccccn3)Cc3ccccn3)nn2)[C@@H](O)[C@@H]1O (stereo partly drawn) [Example 84, (3R,4R,5S,6R)-3-(4-((bis(pyridin-2-ylmethyl)amino)methyl)-1H-1,2,3-triazol-1-yl)-6-(hydroxymethyl)tetrahydro-2H-pyran-2,4,5-triol]	0.82	0.5
O=C(CN(CCN(Cc1ccccn1)Cc1ccccn1)Cc1ccccn1)Nc1ccc(CC(=O)NC(CO)(CO)CO)cc1 [Example 24, 2-((2-(bis(pyridin-2-ylmethyl)amino)ethyl)(pyridin-2-ylmethyl)amino)-N-(4-(2-(1,3-dihydroxy-2-(hydroxymethyl)propan-2-ylamino)-2-oxoethyl)phenyl)acetamide]	1.18	1.9
O=C(O)CN(CCN(CC(=O)O)CC(=O)O)CC(=O)O [EDTA, ethylenediaminetetra-acetic acid, reference compound]	−2.27	
c1ccc(CN(CCN(Cc2ccccn2)Cc2ccccn2)Cc2ccccn2)nc1 [TPEN, N,N,N′,N′-tetrakis(2-pyridylmethyl) ethylenediamine, reference compound]	−0.75	0.5
COC(=O)c1ccc(CN(Cc2ccccn2)Cc2ccccn2)nc1 [Example 12, methyl 6-((bis(pyridin-2-ylmethyl)amino)methyl)nicotinate]	0.57	0.5
O=C(NC(CO)(CO)CO)c1ccc(CN(Cc2ccccn2)Cc2ccccn2)nc1 [Example 103, 6-((bis(pyridin-2-ylmethyl)amino)methyl)-N-(1,3-dihydroxy-2-(hydroxymethyl)propan-2-yl)nicotinamide]	1.23	2.2
O=C(Cc1ccc(-n2cc(CN(Cc3ccccn3)Cc3ccccn3)nn2)cc1)NC(CO)(CO)CO [Example 98, 2-(4-(4-((bis(pyridin-2-ylmethyl)amino)methyl)-1H-1,2,3-triazol-1-yl)phenyl)-N-(1,3-dihydroxy-2-(hydroxymethyl)propan-2-yl)acetamide]	1.11	2.1
O=C(O)C[C@@H]1CC[C@H](NC(=O)c2ccc(CN(Cc3ccccn3)Cc3ccccn3)nc2)B(O)O1 [Example 163, 2-((3R,6S)-3-(6-((Bis(pyridin-2-ylmethyl)amino)methyl)nicotinamido)-2-hydroxy-1,2-oxaborinan-6-yl)acetic acid]	1.35	3.2
O=C(O)CN1CCN(CC(=O)O)CCN([C@H](CO)[C@H](O)CO)CCN(CC(=O)O)CC1 [Butrol, reference compound]	−1.36	1.2
OCc1ccc(CN(Cc2ccccn2)Cc2ccccn2)nc1 [Example 14, (6-((bis(pyridin-2-ylmethyl)amino)methyl)pyridin-3-yl) methanol]	0.49	0.4
CN[C@H](CC(C)C)C(=O)N[C@H]1C(=O)N[C@@H](CC(N)=O)C(=O)N[C@H]2C(=O)N[C@H]3C(=O)N[C@H](C(=O)N[C@H](C(=O)O)c4cc(O)cc(O)c4-c4cc3ccc4O)[C@H](O)c3ccc(c(Cl)c3)Oc3cc2cc(c3O[C@@H]2O[C@H](CO)[C@@H](O)[C@H](O)[C@H]2O[C@H]2C[C@](C)(N)[C@H](O)[C@H](C)O2)Oc2ccc(cc2Cl)[C@H]1O [Vancomycin, reference compound]	−7.83	0.02
C[C@H](CS)C(=O)N1CCC[C@H]1C(=O)O [Captopril, reference compound]	−9.14	
CN(C[C@H](O)[C@@H](O)[C@H](O)[C@H](O)CO)C(=O)c1ccc(CN(Cc2ccccn2)Cc2ccccn2)nc1 [Example 26, 6-((bis(pyridin-2-ylmethyl)amino)methyl)-N-methyl-N-((2S,3R,4R,5R)-2,3,4,5,6-pentahydroxyhexyl)nicotinamide]	1.48	
CN(C[C@H](O)[C@@H](O)[C@H](O)[C@H](O)CO)C(=O)Cc1ccc(NC(=O)CN(CCN(Cc2ccccn2)Cc2ccccn2)Cc2ccccn2)cc1 [Example 25, 2-(4-(2-((2-(bis(pyridin-2-ylmethyl)amino)ethyl)(pyridin-2-ylmethyl)amino)acetamido)phenyl)-N-methyl-N-(2,3,4,5,6-pentahydroxyhexyl)acetamide]	1.43	3.7
OC1O[C@H](Cn2cc(CN(CCN(Cc3ccccn3)Cc3ccccn3)Cc3ccccn3)nn2)[C@H](O)[C@H](O)[C@H]1O (some centres unmarked) [Example 91]	1.63	5.3
O=C(c1ccc(CN(Cc2ccccn2)Cc2ccccn2)nc1)N1CCNCC1 [Example 105, (6-((bis(pyridin-2-ylmethyl)amino)methyl)pyridin-3-yl)(piperazin-1-yl)methanone]	1.40	3.2
CN(C[C@H](O)[C@@H](O)[C@H](O)[C@H](O)CO)C(=O)Cc1ccc(NC(=O)c2ccc(CN(Cc3ccccn3)Cc3ccccn3)nc2)cc1 [Example 99, 6-((bis(pyridin-2-ylmethyl)amino)methyl)-N-(4-(2-(methyl((2S,3R,4R,5R)-2,3,4,5,6-pentahydroxyhexyl)amino)-2-oxoethyl)phenyl)nicotinamide]	1.74	7
CN(C[C@H](O)[C@@H](O)[C@H](O)[C@H](O)CO)C(=O)Cc1ccc(-n2cc(CN(Cc3ccccn3)Cc3ccccn3)nn2)cc1 [Example 96, 2-(4-(4-((bis(pyridin-2-ylmethyl)amino)methyl)-1H-1,2,3-triazol-1-yl)phenyl)-N-methyl-N-((2S,3R,4R,5R)-2,3,4,5,6-pentahydroxyhexyl)acetamide]	0.81	0.9
O=C(Cc1ccc(NC(=O)c2ccc(CN(Cc3ccccn3)Cc3ccccn3)nc2)cc1)NC(CO)(CO)CO [Example 100, 6-((bis(pyridin-2-ylmethyl)amino)methyl)-N-(4-(2-(1,3-dihydroxy-2-(hydroxymethyl)propan-2-ylamino)-2-oxoethyl)phenyl)nicotinamide]	1.44	3.8
